The other results are listed elsewhere or left out.
Columns and labels:
Experiment in all cases: glycan array binding signal (z-score within array); higher = stronger binding
Conditions in all cases: glycan notation: IUPAC condensed, linker removed
GlcNAc(b1-4)GlcNAc = target: GlcNAc(b1-4)GlcNAc
How it was run: (§1)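 Glycan array binding is given as a within-array Z-score, which can be read as non-binding when negative. The arrays, 3228 of them, came from the Consortium for Functional Glycomics database and were retained only where the protein sequence was available. Z-scores were averaged across arrays of the same protein sequence at different concentrations or buffers and across linkers.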

[1] = target: GlcNAc(b1-4)GlcNAc(b1-4)GlcNAc
How it was run: as §1

[2] = target: GlcNAc(b1-4)GlcNAc(b1-4)GlcNAc(b1-4)GlcNAc(b1-4)GlcNAc
How it was run: as §1

[3] = target: GlcNAc(b1-4)GlcNAc(b1-4)GlcNAc(b1-4)GlcNAc(b1-4)GlcNAc(b1-4)GlcNAc
How it was run: as §1

[4] = target: GlcNAc(b1-4)[GlcNAc(b1-6)]GalNAc
How it was run: as §1

[5] = target: GlcNAc(b1-6)Gal(b1-4)GlcNAc
How it was run: as §1

GlcNAc(b1-6)GalNAc = target: GlcNAc(b1-6)GalNAc
How it was run: as §1

GlcNAc3Prop(b1-4)GlcNAc = target: GlcNAc3Prop(b1-4)GlcNAc
How it was run: as §1

[6] = target: GlcNAc6S(b1-3)Gal(b1-4)GlcNAc
How it was run: as §1

Kdn(a2-3)Gal(b1-3)GalNAc = target: Kdn(a2-3)Gal(b1-3)GalNAc
How it was run: as §1

Kdn(a2-3)Gal(b1-3)GlcNAc = target: Kdn(a2-3)Gal(b1-3)GlcNAc
How it was run: as §1

Kdn(a2-3)Gal(b1-4)Glc = target: Kdn(a2-3)Gal(b1-4)Glc
How it was run: as §1

Kdn(a2-3)Gal(b1-4)GlcNAc = target: Kdn(a2-3)Gal(b1-4)GlcNAc
How it was run: as §1

[7] = target: Kdn(a2-3)Gal(b1-4)[Fuc(a1-3)]GlcNAc
How it was run: as §1

Kdn(a2-6)Gal(b1-4)GlcNAc = target: Kdn(a2-6)Gal(b1-4)GlcNAc
How it was run: as §1

[8] = target: Man(a1-2)Man(a1-2)Man(a1-3)Man
How it was run: as §1

[9] = target: Man(a1-2)Man(a1-2)Man(a1-6)[Man(a1-3)]Man
How it was run: as §1

Man(a1-2)Man(a1-3)Man = target: Man(a1-2)Man(a1-3)Man
How it was run: as §1

[10] = target: Man(a1-2)Man(a1-3)[Man(a1-2)Man(a1-6)]Man
How it was run: as §1

[11] = target: Man(a1-2)Man(a1-3)[Man(a1-2)Man(a1-6)]Man(a1-6)[Man(a1-2)Man(a1-2)Man(a1-3)]Man
How it was run: as §1

[12] = target: Man(a1-2)Man(a1-3)[Man(a1-2)Man(a1-6)]Man(a1-6)[Man(a1-2)Man(a1-2)Man(a1-3)]Man(b1-4)GlcNAc(b1-4)GlcNAc
How it was run: as §1

[13] = target: Man(a1-2)Man(a1-3)[Man(a1-6)]Man(a1-6)[Man(a1-2)Man(a1-3)]Man(b1-4)GlcNAc(b1-4)GlcNAc
How it was run: as §1

[14] = target: Man(a1-2)Man(a1-6)[Man(a1-3)]Man(a1-6)[Man(a1-2)Man(a1-2)Man(a1-3)]Man
How it was run: as §1

[15] = target: Man(a1-2)Man(a1-6)[Man(a1-3)]Man(a1-6)[Man(a1-2)Man(a1-2)Man(a1-3)]Man(b1-4)GlcNAc(b1-4)GlcNAc
How it was run: as §1

Man(a1-3)[Man(a1-6)]Man = target: Man(a1-3)[Man(a1-6)]Man
How it was run: as §1

[16] = target: Man(a1-3)[Man(a1-6)]Man(a1-6)[Man(a1-2)Man(a1-3)]Man(b1-4)GlcNAc(b1-4)GlcNAc
How it was run: as §1

[17] = target: Man(a1-3)[Man(a1-6)]Man(a1-6)[Man(a1-3)]Man
How it was run: as §1

[18] = target: Man(a1-3)[Man(a1-6)]Man(a1-6)[Man(a1-3)]Man(b1-4)GlcNAc(b1-4)GlcNAc
How it was run: as §1

[19] = target: Man(a1-3)[Man(a1-6)]Man(b1-4)GlcNAc(b1-4)GlcNAc
How it was run: as §1

[20] = target: Man(a1-3)[Man(a1-6)]Man(b1-4)GlcNAc(b1-4)[Fuc(a1-6)]GlcNAc
How it was run: as §1

Man(a1-6)Man = target: Man(a1-6)Man
How it was run: as §1

Man(b1-4)GlcNAc = target: Man(b1-4)GlcNAc
How it was run: as §1

MurNAc(b1-4)GlcNAc = target: MurNAc(b1-4)GlcNAc
How it was run: as §1

Neu5Ac(a2-3)Gal = target: Neu5Ac(a2-3)Gal
How it was run: as §1

[21] = target: Neu5Ac(a2-3)Gal(b1-3)GalNAc
How it was run: as §1

[22] = target: Neu5Ac(a2-3)Gal(b1-3)GalNAc(b1-3)Gal(a1-4)Gal(b1-4)Glc
How it was run: as §1

[23] = target: Neu5Ac(a2-3)Gal(b1-3)GalNAc(b1-4)[Neu5Ac(a2-3)]Gal(b1-4)Glc
How it was run: as §1

[24] = target: Neu5Ac(a2-3)Gal(b1-3)GalNAc(b1-4)[Neu5Ac(a2-8)Neu5Ac(a2-3)]Gal(b1-4)Glc
How it was run: as §1

[25] = target: Neu5Ac(a2-3)Gal(b1-3)GalNAc6S
How it was run: as §1

[26] = target: Neu5Ac(a2-3)Gal(b1-3)GlcNAc
How it was run: as §1

[27] = target: Neu5Ac(a2-3)Gal(b1-3)GlcNAc(b1-2)Man
How it was run: as §1

[28] = target: Neu5Ac(a2-3)Gal(b1-3)GlcNAc(b1-2)Man(a1-3)[GlcNAc(b1-4)][Neu5Ac(a2-3)Gal(b1-3)GlcNAc(b1-2)Man(a1-6)]Man(b1-4)GlcNAc(b1-4)GlcNAc
How it was run: as §1

[29] = target: Neu5Ac(a2-3)Gal(b1-3)GlcNAc(b1-2)Man(a1-3)[Neu5Ac(a2-3)Gal(b1-3)GlcNAc(b1-2)Man(a1-6)]Man(b1-4)GlcNAc(b1-4)GlcNAc
How it was run: as §1

B1: Gal 10 (Homo sapiens), Q05315 (protein)
chain: MSLLPVPYTEAASLSTGSTVTIKGRPLVCFLNEPYLQVDFHTEMKEESDIVFHFQVCFGRRVVMNSREYGAWKQQVESKNMPFQDGQEFELSISVLPDKYQVMVNGQSSYTFDHRIKPEAVKMVQVWRDISLTKFNVSYLKR
- glycan array binding signal (z-score) (GlcNAc(b1-4)GlcNAc): -0.102
- glycan array binding signal (z-score) [1]: -0.449
- glycan array binding signal (z-score) [2]: -0.206
- glycan array binding signal (z-score) [3]: 0.432
- glycan array binding signal (z-score) [4]: -0.956
- glycan array binding signal (z-score) [5]: -0.355
- glycan array binding signal (z-score) (GlcNAc(b1-6)GalNAc): -0.333
- glycan array binding signal (z-score) (GlcNAc3Prop(b1-4)GlcNAc): 0.2
- glycan array binding signal (z-score) [6]: -0.059
- glycan array binding signal (z-score) (Kdn(a2-3)Gal(b1-3)GalNAc): 0.569
- glycan array binding signal (z-score) (Kdn(a2-3)Gal(b1-3)GlcNAc): -0.192
- glycan array binding signal (z-score) (Kdn(a2-3)Gal(b1-4)Glc): -0.657
- glycan array binding signal (z-score) (Kdn(a2-3)Gal(b1-4)GlcNAc): 0.159
- glycan array binding signal (z-score) [7]: -0.151
- glycan array binding signal (z-score) (Kdn(a2-6)Gal(b1-4)GlcNAc): 0.098
- glycan array binding signal (z-score) [8]: 2
- glycan array binding signal (z-score) [9]: -0.515
- glycan array binding signal (z-score) (Man(a1-2)Man(a1-3)Man): 0.88
- glycan array binding signal (z-score) [10]: -0.68
- glycan array binding signal (z-score) [11]: -0.669
- glycan array binding signal (z-score) [12]: 0.376
- glycan array binding signal (z-score) [13]: -0.622
- glycan array binding signal (z-score) [14]: 0.911
- glycan array binding signal (z-score) [15]: 0.15
- glycan array binding signal (z-score) (Man(a1-3)[Man(a1-6)]Man): -0.378
- glycan array binding signal (z-score) [16]: -0.705
- glycan array binding signal (z-score) [17]: -0.048
- glycan array binding signal (z-score) [18]: -1.04
- glycan array binding signal (z-score) [19]: -0.387
- glycan array binding signal (z-score) [20]: 0.257
- glycan array binding signal (z-score) (Man(a1-6)Man): -0.435
- glycan array binding signal (z-score) (Man(b1-4)GlcNAc): -0.064
- glycan array binding signal (z-score) (MurNAc(b1-4)GlcNAc): -0.231
- glycan array binding signal (z-score) (Neu5Ac(a2-3)Gal): -0.467
- glycan array binding signal (z-score) [21]: -0.079
- glycan array binding signal (z-score) [22]: -0.265
- glycan array binding signal (z-score) [23]: -0.288
- glycan array binding signal (z-score) [24]: 0.255
- glycan array binding signal (z-score) [25]: 0.057
- glycan array binding signal (z-score) [26]: -0.573
- glycan array binding signal (z-score) [27]: 1.03
- glycan array binding signal (z-score) [28]: -0.2
- glycan array binding signal (z-score) [29]: -0.522

From the supplement of paper PMC8728848
